# The other results are listed elsewhere or left out. Small differences around the control level are noise.
# By UniProt entry, the sequences of proteins in these tests, tags left out. Where a name states a change or a piece, a line headed by the entry shows the natural chain unless it says otherwise.
# UniProt P49586: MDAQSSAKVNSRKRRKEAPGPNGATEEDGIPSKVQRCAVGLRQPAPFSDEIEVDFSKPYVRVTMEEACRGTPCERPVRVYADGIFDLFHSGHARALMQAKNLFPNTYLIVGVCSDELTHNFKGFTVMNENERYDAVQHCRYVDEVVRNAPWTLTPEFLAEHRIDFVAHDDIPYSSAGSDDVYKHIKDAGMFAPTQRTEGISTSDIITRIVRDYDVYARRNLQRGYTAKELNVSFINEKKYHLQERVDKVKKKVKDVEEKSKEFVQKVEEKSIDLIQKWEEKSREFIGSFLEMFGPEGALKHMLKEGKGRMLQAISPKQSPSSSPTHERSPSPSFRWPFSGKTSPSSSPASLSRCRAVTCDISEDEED
# UniProt P56389: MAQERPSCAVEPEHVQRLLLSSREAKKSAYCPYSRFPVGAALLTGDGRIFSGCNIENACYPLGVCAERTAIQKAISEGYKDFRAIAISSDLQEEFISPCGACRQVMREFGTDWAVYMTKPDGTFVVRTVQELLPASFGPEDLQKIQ
# UniProt P46938: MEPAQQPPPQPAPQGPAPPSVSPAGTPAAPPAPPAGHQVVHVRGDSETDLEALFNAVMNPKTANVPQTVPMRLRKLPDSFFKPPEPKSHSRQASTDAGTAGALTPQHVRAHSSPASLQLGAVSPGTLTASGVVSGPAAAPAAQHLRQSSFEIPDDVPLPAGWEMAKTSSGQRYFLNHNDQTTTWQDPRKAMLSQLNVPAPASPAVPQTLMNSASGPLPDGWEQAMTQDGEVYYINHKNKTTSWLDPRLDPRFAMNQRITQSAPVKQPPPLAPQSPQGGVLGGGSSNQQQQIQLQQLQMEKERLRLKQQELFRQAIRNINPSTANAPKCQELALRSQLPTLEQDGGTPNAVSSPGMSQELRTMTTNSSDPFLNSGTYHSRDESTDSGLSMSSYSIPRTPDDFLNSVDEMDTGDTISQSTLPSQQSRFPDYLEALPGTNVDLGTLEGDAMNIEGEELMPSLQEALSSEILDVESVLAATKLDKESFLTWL
# UniProt P49962: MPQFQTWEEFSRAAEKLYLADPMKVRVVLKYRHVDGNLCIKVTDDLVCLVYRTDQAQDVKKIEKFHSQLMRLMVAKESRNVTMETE
# UniProt P32233: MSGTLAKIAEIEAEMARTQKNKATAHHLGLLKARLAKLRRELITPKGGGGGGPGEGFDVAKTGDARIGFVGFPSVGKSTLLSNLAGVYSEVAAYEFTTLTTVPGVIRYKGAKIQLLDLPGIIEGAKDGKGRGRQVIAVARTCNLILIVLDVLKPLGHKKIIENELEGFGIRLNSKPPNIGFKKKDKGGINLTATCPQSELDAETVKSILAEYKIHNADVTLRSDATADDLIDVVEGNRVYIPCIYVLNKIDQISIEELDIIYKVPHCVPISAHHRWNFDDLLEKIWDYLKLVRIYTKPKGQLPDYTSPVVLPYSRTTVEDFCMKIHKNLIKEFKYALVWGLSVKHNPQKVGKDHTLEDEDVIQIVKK
# UniProt P56375: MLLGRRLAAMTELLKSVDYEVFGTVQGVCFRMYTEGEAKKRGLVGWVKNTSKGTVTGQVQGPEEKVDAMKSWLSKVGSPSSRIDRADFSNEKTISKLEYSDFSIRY
# UniProt P36993: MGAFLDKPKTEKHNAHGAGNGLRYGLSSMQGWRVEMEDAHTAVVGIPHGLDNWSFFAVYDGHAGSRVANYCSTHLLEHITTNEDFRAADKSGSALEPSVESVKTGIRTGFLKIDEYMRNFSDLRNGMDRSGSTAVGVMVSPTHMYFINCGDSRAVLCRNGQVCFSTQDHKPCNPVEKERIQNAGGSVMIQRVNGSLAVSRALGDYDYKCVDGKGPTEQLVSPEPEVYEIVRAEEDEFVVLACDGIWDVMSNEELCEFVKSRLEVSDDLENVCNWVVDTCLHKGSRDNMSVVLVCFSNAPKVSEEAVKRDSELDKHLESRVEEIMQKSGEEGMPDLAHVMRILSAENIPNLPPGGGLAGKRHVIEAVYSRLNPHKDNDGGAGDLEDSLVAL
# UniProt P34928: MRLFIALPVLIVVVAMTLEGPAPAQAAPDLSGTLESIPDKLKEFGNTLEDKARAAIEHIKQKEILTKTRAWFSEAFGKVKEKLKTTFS
# UniProt P51437: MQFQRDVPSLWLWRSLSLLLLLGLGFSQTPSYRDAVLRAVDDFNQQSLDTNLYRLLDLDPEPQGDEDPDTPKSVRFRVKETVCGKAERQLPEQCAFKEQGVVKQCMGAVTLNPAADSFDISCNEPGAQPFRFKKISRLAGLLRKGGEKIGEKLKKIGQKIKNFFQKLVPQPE
# UniProt P29416: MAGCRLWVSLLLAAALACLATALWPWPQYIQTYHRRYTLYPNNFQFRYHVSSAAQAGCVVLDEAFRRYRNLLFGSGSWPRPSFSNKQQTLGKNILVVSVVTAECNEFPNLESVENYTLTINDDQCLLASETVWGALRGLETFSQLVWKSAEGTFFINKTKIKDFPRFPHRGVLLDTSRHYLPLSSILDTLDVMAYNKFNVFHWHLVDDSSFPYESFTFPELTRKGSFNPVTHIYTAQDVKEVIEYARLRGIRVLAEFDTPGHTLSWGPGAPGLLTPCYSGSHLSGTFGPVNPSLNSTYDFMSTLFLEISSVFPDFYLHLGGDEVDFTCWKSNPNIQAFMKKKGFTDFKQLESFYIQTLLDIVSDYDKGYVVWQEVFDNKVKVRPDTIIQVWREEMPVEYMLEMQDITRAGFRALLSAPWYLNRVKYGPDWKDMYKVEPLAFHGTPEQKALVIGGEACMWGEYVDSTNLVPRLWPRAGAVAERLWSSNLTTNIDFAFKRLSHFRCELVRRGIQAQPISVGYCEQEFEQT
# UniProt P46061: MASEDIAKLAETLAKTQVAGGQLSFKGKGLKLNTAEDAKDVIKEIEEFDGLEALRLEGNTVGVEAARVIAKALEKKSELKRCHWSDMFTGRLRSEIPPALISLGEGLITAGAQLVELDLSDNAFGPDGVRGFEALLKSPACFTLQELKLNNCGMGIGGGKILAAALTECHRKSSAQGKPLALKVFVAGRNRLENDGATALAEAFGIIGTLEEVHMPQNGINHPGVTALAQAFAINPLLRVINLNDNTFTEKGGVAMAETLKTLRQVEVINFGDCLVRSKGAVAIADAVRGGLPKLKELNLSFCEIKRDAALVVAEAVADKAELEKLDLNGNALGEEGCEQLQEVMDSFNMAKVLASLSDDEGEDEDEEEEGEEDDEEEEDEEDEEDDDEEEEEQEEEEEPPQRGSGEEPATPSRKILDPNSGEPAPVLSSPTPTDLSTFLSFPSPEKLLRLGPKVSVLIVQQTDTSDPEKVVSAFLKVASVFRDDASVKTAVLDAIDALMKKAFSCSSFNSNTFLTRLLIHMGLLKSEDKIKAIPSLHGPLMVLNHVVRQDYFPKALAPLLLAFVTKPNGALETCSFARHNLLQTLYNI
# UniProt P47791: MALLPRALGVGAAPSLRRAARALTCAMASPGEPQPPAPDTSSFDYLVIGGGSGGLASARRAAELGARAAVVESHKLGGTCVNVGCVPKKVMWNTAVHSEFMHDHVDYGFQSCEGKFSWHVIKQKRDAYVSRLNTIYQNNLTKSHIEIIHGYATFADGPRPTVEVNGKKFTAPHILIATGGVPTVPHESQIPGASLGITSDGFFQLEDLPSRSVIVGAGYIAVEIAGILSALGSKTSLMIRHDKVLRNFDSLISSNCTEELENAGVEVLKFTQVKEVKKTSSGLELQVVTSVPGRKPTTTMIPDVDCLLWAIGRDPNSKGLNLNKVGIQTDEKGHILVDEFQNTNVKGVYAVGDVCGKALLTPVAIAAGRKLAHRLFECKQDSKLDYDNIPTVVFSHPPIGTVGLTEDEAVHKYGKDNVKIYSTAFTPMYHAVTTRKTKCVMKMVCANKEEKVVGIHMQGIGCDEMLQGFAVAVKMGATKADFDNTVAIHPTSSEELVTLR
# UniProt P39447, whole entry: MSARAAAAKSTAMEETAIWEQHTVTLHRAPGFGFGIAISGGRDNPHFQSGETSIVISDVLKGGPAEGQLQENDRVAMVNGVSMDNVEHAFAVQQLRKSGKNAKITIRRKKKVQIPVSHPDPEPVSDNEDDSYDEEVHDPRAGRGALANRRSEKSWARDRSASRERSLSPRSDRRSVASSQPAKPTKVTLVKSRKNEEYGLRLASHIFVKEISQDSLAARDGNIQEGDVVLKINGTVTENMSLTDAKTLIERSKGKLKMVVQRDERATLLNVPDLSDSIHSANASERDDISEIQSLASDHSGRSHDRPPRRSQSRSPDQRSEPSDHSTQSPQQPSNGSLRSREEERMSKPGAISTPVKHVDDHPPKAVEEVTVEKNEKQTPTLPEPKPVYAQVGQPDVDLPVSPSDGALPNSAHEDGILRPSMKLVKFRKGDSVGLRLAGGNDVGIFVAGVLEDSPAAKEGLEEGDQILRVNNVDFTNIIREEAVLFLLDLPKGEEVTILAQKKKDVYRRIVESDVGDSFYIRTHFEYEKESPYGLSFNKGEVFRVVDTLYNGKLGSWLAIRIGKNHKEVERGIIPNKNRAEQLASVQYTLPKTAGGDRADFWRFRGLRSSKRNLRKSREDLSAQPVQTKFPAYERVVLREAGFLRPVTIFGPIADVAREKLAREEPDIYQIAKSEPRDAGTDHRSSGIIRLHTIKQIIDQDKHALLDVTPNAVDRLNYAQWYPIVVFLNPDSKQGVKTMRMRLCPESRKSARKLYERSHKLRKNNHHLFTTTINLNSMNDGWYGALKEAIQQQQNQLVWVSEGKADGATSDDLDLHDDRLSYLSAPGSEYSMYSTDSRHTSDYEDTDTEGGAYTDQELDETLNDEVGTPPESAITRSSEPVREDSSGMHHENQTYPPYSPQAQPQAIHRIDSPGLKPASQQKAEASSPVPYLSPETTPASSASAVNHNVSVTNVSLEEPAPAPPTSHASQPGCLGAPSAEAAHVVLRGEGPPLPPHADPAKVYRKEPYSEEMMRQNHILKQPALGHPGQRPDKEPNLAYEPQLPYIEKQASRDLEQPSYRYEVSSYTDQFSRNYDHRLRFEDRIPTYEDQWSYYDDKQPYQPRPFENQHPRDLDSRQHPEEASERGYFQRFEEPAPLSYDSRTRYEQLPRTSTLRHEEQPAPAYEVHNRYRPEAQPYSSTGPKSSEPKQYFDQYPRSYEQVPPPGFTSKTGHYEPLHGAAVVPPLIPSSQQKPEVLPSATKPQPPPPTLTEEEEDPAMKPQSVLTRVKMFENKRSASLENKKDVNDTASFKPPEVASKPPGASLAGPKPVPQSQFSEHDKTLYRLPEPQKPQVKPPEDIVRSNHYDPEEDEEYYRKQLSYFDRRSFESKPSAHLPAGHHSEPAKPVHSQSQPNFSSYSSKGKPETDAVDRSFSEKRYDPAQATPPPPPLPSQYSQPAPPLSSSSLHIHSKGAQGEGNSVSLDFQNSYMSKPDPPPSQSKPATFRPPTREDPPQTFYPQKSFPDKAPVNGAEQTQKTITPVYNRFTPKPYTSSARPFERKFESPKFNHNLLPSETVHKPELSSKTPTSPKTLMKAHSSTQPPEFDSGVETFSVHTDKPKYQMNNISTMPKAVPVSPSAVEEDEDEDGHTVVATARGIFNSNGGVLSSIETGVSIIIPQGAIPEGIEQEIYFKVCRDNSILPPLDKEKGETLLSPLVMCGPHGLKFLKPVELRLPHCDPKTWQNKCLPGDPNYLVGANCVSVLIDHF
# UniProt P35290: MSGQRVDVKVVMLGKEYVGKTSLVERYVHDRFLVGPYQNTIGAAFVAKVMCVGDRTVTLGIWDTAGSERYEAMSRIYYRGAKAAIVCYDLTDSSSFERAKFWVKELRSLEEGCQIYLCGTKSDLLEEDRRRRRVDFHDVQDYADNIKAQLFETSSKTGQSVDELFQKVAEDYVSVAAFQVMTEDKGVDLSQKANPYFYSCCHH
# UniProt P56380: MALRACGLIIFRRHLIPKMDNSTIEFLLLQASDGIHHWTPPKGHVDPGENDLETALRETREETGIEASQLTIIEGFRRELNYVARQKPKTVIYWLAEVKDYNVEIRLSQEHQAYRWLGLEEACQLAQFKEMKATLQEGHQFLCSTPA
# UniProt P46718: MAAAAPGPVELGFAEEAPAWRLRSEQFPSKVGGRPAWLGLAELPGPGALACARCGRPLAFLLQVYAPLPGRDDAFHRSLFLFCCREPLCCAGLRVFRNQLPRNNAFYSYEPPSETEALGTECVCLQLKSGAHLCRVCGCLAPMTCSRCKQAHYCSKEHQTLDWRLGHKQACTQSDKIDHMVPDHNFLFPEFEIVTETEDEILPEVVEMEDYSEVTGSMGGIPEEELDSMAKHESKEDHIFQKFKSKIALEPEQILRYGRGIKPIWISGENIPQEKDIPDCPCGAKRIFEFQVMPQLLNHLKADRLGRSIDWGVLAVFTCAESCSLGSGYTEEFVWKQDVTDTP
# UniProt P47758: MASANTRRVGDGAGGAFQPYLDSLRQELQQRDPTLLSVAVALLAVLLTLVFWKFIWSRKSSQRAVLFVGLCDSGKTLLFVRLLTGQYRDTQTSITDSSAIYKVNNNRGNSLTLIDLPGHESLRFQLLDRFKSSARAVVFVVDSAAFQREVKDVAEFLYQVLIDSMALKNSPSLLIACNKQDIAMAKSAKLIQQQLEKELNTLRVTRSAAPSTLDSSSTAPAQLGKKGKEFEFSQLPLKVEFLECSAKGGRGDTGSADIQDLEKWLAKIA
# Compound: CN[C@@H]1C[C@H]2O[C@@](C)([C@@H]1OC)n1c3ccccc3c3c4c(c5c6ccccc6n2c5c31)C(=O)NC4 [staurosporine]
# Experiment: log2 fold change of pooled soluble protein (PISA), ligand vs vehicle (log2 ratio); higher = more thermally stabilized
# Details: ligand concentration: 20 uM; assay format: PISA pool 52.9/55.5/58.6 C
row,Target,log2 fold change of pooled soluble protein
1,UniProt P35831,-0.0249
2,UniProt P37804,-0.0285
3,UniProt P49722,-0.196
4,UniProt P49586,-0.0131
5,UniProt P56389,0.195
6,UniProt P46938,-0.0828
7,UniProt P53996,-0.0289
8,UniProt P35441,-0.194
9,UniProt P41105,-0.0104
10,UniProt P42867,0.0678
11,UniProt P49962,-0.123
12,UniProt P53026,0.144
13,UniProt P56399,-0.0121
14,UniProt P32233,-0.0647
15,UniProt P56375,0.16
16,UniProt P36993,-0.0759
17,UniProt P54116,-0.188
18,UniProt P34928,0.0737
19,UniProt P28653,-0.306

# A different layout for some results above.
row	Target	log2 fold change of pooled soluble protein
16	UniProt P36993	-0.0759
19	UniProt P28653	-0.306

# Further entries

row,Target,log2 fold change of pooled soluble protein
1,UniProt P51437,-0.218
2,UniProt P29416,-0.125
3,UniProt P28667,0.159
4,UniProt P46061,0.0829
5,UniProt P51859,0.127
6,UniProt P52624,0.253
7,UniProt P47791,-0.383
8,UniProt P46656,0.0201
9,UniProt P47739,-0.523
10,UniProt P35564,0.126
11,UniProt P29341,0.0106
12,UniProt P39447,0.0203
13,UniProt P35290,-0.278
14,UniProt P56380,-0.0466
15,UniProt P35330,0.138
16,UniProt P46718,-0.0326
17,UniProt P47758,-0.000928
18,UniProt P50516,0.0873

# From the supplement of paper PMC12819154, “High-throughput peptide-centric local stability assay extends protein–ligand identification to membrane proteins, tissues and bacteria” (Nature Structural & Molecular Biology, 2025)
